Assay results from PubChem BioAssay AID2044 (Broad Institute, 2009).
Some of the results follow. Entries with a potency or affinity are not part of this list. The source made no clear call on entries shown without one.

Assay: inhibitors of intracellular T. cruzi replication, confirmation, NIH3T3 host cells, beta-gal luminescence (AID 2044)
Settings: T. cruzi beta-gal in NIH3T3, GalScreen luminescence, 90 h; at 3 µM (top of the series)

**Q.** With `COc1ccc(C2CC(c3ccccc3)=NN2C(=O)c2ccc(Cl)c([N+](=O)[O-])c2)cc1` (stereo not given) as the compound, how does the activity change, negative = inhibition read?
**A.** 57.5%

**Q.** Which activity change, negative = inhibition does the source give for `COc1ccc(C(CCN)Cc2ccccc2)cc1` (stereo not given) here?
**A.** 32.1%

**Q.** For `NC(=S)Nc1cccc2[nH]ccc12`, which activity change, negative = inhibition is on record?
**A.** 24.7%

**Q.** Which activity change, negative = inhibition does the source give for `CSc1nc(-c2ccc(C)cc2)nc(C(Cl)Cl)n1` here?
**A.** 89.6%

**Q.** For `CC(NC=C1C(=O)OC(C)(C)OC1=O)C(=O)O` (stereo not given), which activity change, negative = inhibition is on record?
**A.** -30.8%
